# These are yes or no findings as the source states them, for the method shown. In cells and extracts the contact can be indirect. For some of these results: Binding calls can cover weak binding; strength is not graded here.
# Amino acid sequences for entries named in this document (tags omitted). A change or cut given only in a name is not applied to a line headed by its entry.
# UniProt P12004: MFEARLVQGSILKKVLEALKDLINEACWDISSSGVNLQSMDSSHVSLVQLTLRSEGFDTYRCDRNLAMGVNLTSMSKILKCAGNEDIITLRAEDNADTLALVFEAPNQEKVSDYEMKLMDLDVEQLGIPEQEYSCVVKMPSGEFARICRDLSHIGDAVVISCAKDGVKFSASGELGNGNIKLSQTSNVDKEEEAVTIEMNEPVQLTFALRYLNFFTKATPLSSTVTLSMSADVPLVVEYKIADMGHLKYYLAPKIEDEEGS
# UniProt Q6IQ49: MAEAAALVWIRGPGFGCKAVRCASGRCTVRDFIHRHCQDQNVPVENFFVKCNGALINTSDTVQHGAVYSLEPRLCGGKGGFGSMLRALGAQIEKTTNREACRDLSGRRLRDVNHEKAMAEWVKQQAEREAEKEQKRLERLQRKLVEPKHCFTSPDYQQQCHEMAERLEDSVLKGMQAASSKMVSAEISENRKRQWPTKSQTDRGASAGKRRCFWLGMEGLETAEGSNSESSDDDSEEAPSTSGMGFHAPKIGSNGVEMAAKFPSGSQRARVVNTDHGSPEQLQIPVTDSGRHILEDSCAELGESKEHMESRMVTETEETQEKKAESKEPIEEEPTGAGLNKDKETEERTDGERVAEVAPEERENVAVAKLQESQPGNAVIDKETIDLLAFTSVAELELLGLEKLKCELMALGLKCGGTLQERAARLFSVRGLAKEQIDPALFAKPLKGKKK
# UniProt Q9NZJ0: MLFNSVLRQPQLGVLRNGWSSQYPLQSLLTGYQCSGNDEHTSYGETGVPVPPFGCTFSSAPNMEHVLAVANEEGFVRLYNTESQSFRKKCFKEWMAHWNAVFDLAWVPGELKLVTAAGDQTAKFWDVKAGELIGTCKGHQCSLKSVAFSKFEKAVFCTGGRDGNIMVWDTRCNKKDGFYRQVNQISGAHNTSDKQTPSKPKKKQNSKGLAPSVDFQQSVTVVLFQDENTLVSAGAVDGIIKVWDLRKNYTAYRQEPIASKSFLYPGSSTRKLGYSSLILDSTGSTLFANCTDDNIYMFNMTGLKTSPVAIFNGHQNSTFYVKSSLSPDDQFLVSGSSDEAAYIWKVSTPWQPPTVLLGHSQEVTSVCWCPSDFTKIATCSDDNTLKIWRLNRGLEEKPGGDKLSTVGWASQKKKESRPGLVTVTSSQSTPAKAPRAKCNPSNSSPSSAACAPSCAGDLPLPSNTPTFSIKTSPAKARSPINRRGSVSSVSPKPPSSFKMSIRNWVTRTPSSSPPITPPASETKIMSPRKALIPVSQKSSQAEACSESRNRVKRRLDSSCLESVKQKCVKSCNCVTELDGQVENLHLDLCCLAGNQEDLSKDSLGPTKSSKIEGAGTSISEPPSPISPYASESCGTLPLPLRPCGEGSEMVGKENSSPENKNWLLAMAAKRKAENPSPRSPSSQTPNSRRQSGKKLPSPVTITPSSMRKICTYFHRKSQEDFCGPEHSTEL
# Tests used:
# [1] = target: GST-PCNA (UniProt P12004); test: pull-down; GST-PCNA (or GST) bound to glutathione-sepharose beads, incubated with 293T cell lysates in NETN150 buffer (1% NP40, 150 mM NaCl, 0.1 mM EDTA, 50 mM Tris pH 7.5) for 3 h at 4°C, three washes, Western blotting; only the target purified
# [2] = target: C-terminally Flag-tagged SDE2 (wild type) (human) (UniProt Q6IQ49); test: co-IP; 293T cells co-expressing HA-CDT2 and Flag-SDE2 variants, 10 uM MG132 for 4 h; lysis in NETN150 buffer, anti-Flag M2 affinity gel, four washes, Western blotting
# [3] = target: Flag-tagged SDE2 with the SAP domain deleted (ΔSAP) (human) (UniProt Q6IQ49); test: as above
binding [1],binding [2],binding [3],Substance
binds,,,"GFP-SDE2 GA (full-length SDE2, diglycine Gly76 & 77 mutated to alanines) (from UniProt Q6IQ49-1)"
,binds,no binding,HA-CDT2 (from UniProt Q9NZJ0 1-730)
no binding,,,GFP-SDE2 GA + PIP (F47A & F48A) (from UniProt Q6IQ49-1)

# — publication PMC5131917
